According to paper PMC4241993:
Results are given in words; binding and its absence hold for the method and conditions named. Binding seen in cells or lysates may run through a third protein. Some results given as binding are weak or reduced against the parent protein; the word gives no strength. Where a sequence is shown, tags or fusion partners need not be part of it.

Tests used:
[1] = molecular target: T1, ΔC100-KIAA1199 mutant (FLAG) (human (cDNA from CaSki cells)) (UniProt Q8WUJ3); test: co-IP; cells transfected with KIAA1199-FLAG wild type or ΔN/ΔC mutants; anti-FLAG IP (anti-HA as negative control) followed by anti-EGFR blot
T1 sequence: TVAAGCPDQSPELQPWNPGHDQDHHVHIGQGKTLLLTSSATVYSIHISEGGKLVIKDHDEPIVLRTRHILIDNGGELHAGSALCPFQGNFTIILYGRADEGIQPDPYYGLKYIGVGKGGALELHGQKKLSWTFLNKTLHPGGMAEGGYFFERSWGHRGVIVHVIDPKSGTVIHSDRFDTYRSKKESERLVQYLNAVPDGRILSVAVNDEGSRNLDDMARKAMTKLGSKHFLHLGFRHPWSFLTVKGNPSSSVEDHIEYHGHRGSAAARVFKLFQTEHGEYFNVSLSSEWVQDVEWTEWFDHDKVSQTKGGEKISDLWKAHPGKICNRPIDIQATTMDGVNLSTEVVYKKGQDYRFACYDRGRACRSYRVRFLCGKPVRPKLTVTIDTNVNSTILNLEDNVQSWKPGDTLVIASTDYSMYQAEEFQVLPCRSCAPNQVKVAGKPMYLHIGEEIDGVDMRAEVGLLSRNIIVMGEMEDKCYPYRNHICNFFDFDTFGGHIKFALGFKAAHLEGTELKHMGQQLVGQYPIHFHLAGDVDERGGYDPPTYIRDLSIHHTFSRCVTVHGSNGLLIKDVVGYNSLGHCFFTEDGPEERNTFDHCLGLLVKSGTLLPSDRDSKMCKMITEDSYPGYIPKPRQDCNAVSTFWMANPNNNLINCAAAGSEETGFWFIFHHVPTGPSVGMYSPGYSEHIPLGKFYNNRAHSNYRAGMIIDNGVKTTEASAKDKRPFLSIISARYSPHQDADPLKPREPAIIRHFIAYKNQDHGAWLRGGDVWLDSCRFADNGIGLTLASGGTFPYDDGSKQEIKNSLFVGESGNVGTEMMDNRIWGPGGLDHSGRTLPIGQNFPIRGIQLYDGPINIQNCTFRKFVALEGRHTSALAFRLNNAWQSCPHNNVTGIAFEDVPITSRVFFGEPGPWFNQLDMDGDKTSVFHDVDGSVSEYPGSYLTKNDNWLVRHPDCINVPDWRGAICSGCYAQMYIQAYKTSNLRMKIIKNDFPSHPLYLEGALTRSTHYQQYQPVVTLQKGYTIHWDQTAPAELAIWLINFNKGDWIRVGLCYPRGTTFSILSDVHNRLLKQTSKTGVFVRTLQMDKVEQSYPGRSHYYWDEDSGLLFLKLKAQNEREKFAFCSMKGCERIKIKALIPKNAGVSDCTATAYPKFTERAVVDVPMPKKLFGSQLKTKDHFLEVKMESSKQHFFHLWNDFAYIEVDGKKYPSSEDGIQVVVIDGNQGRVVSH

[2] = molecular target: T2, ΔN100 KIAA1199 mutant (FLAG) (human (cDNA from CaSki cells)) (UniProt Q8WUJ3); test: as above
T2 sequence: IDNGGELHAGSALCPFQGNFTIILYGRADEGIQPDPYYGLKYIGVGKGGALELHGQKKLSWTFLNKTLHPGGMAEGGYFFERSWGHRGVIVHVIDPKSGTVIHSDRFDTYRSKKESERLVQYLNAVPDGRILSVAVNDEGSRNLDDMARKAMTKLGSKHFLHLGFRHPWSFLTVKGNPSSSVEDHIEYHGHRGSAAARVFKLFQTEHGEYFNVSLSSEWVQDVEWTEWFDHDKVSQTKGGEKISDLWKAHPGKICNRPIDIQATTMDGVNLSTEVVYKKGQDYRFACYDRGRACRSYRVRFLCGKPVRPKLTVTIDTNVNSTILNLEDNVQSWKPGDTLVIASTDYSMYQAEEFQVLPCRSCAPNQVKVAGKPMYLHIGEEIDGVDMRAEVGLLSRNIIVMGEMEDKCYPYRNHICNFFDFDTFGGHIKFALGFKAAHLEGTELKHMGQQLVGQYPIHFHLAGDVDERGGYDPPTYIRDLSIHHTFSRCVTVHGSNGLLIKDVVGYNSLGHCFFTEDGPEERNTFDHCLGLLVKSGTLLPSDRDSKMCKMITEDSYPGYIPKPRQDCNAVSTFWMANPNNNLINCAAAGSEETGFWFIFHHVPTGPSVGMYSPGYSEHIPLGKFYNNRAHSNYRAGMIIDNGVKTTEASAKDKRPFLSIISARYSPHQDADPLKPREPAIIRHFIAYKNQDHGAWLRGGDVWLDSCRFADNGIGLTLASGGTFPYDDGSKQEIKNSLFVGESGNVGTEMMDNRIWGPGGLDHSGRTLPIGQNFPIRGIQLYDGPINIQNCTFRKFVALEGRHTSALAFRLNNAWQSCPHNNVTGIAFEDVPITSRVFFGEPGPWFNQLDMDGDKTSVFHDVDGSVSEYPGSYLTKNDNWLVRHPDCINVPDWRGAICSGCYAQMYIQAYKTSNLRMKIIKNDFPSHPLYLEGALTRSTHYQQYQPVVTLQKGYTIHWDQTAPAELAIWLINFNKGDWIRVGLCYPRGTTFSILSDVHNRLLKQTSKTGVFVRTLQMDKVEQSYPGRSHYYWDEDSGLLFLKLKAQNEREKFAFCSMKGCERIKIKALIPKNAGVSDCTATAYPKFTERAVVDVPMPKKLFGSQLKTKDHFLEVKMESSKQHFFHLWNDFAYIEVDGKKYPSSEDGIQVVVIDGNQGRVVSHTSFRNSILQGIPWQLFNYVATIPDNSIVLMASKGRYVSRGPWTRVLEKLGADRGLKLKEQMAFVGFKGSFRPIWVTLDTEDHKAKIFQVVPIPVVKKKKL

With “EGFR (in extracts of transfected cells, Figure 5e) (from UniProt P00533 25-1210) (receptor)” the binding [1] was “binds” and the binding [2] was “no binding”.
